# Test results taken from patent publication US12358949B2, “Defensin fragments for use in therapy or prophylaxis” (priority 2019, dated 2025).
# “Also recorded” adds a separate entry of the source. At least one peptide structure holds a part that was inferred or is arguable (an end, a ring closure or a residue). Where a SMILES comes first, the peptide text is derived from it.
# How the values were obtained:
# E. coli MC1000 = experiment: Transmission electron microscopy of peptide treated bacteria; assay type: cell-based; details: 200 μg/ml, 2 hours
# Experimental: Transmission electron microcscopy experiments were performed as previously described^11. 6×10^8 cfu E. coli MC1000 was incubated with 200 μg/ml of each peptide for 2 hours. Bacteria were fixed in Karnovsky's fixative, embedded in agarose, coagulated, cut in small blocks and fixed again in Karnovsky's solution. After post-fixation and embedding in glycid ether blocks were cut using an ultra-microtome. Sections (30 nm) were mounted on copper grids and analyzed using a Zeiss LIBRA 120 transmissions electron microscope.
# [1] = tested on: gut microbiota of C57BL/6J mice; experiment: In vivo microbiota analysis
# C. albicans 529L = assay type: cell-based; details: after 12 hours (Table 4)
# Akkermansia muciniphila = experiment: Turbidity broth assay, anaerobic, 72 hours; assay type: cell-based; details: anaerobic jar
# S. aureus SA113 = experiment: Turbidity assay, MIC by optical density after 18 h; assay type: cell-based; details: S. aureus SA113 wild type
# C. albicans ATCC 10231 = experiment: Turbidity assay, MIC by optical density after 24 h; assay type: cell-based
# commensal bacteria = experiment: Radial diffusion assay, HD-5 fragments; assay type: cell-based; details: 4 μg fragment, 2 μg full-length peptide; commensal bacteria (FIG. 3)
# Experimental: In the RDA 2 μg of the full length and 4 μg of each fragment were used. An inhibition zone greater than 5 mm was determined as high activity, between 2.5 and 5 mm as low activity and 2.5 mm were the diameter of the punched well and therefore no activity.
# Antimicrobial activity of all peptides was tested with a modified radial diffusion assay from Lehrer et al^12 Shortly described, log-phase bacteria grew (anaerobic bacteria with AnaeroGen, Oxoid in anaerobic jars) in liquid tryptic soy broth (TSB) (Becton Dickinson). After several wash steps in 10 mM sodium phosphate buffer pH 7.4, 4×10^6 cfu/ml was used per assay. To measure the antibacterial effect of the identified peptide fragments, the bacteria were incubated in 10 mM sodium phosphate (pH 7.4) containing 0.3 mg/ml TSB powder and 1% (w/v) low EEO-agarose (Applichem). Peptide fragments were then pipetted into punched wells and allowed to diffuse for 3 hours at 37° C. After that a nutrient rich gel with 6% TSB (w/v) and 1% agarose in 10 mM sodium phosphate buffer was poured on top of the first gel. After 24 hours the inhibition zones were measured. […] All experiments were carried out at least three times.
# E. coli BW 25113 = experiment: Turbidity assay, MIC by optical density after 18 h; assay type: cell-based; parameters: key to antimicrobial activity (MIC), activity class: XX High activity; X Low activity; No activity
# Experimental: Bactericidal activity of the E. coli and S. aureus strains in the cell wall target experiments as well as the HD5 dimer experiments was assessed as described previously. Log-phase bacteria were collected by centrifugation (2500 rpm, 10 min, […]), washed twice with 10 mM sodium phosphate buffer containing 1% (w/v) TSB broth and the optical density at OD600 nm (OD600=0.1) was determined. Approximately 5×10^5 CFU/ml bacteria were incubated with serial peptide concentrations (1.17-150 μM) in a final volume of 100 μl in 10 mM sodium phosphate buffer containing 1% (w/v) TSB broth for 2 hours at 37° C. After incubation, 100 μl of 6% TSB (w/v) were added and absorbance was measured at 600 nm (Tecan, Switzerland) and monitored for 18 hours. Afterwards, 100 μl per well were plated on LB-plates to determine the numbers of viable bacteria microbiologically. Bactericidal activity is expressed as the LC99.9, the lowest concentration that killed ≥99.9% of bacteria. The experiment was repeated at least three times independently.
# E. faecalis ATCC 19433 = experiment: Turbidity assay, MIC by optical density after 18 h; assay type: cell-based; parameters: key to antimicrobial activity (MIC), activity class: XX High activity; X Low activity; No activity
# [2] = tested on: S. enterica serovar Enteritidis; experiment: Turbidity assay, MIC by optical density after 18 h; assay type: cell-based; parameters: key: XX High activity; X Low activity; No activity
# C. tropicalis ATCC 4563 = experiment: Turbidity assay, MIC by optical density after 24 h; assay type: cell-based; parameters: key to antimicrobial activity (MIC), activity class: XX High activity; X Low activity; No activity
# P. aeruginosa ATCC 27853 = assay type: cell-based; details: after 12 hours, listed as 1-9
# Experimental: (§1) The tested bacteria were incubated overnight in 1×TSB broth, centrifuged and washed with 10 mM sodium phosphate buffer containing 1% (w/v) TSB broth. 5×10^5 cfu/ml bacteria were mixed with different peptide concentrations in 10 mM sodium phosphate buffer with 1% (w/v) TSB (final volume 100 μl) and incubated for 2 hours at 37° C. Afterwards we added 100 μl 2×TSB broth and we measured the optical density at 600 nm (Spark 10M, Tecan, Austria). Bacterial growth was monitored for 12 hours, growing at 37° C. with shaking during the measurements each 30 minutes, except for Akkermansia muciniphila which were incubated at 37° C. in an anaerobic jar and growth was measured after 72 hours.
# A. baumannii 4-MRGN = assay type: cell-based; details: after 12 hours, listed as 1-9
# Experimental: as §1
# K. pneumoniae DSM 30104 = assay type: cell-based; details: after 12 hours
# Experimental: as §1
# K. pneumoniae 3-MRGN = assay type: cell-based; details: after 12 hours
# Experimental: as §1
# S. aureus USA300 = assay type: cell-based; details: after 12 hours, listed as 1-9
# Experimental: as §1
# E. faecium 475747 = assay type: cell-based; details: after 12 hours
# Experimental: as §1
# E. faecium ATCC 19434 = experiment: Turbidity assay, MIC by optical density after 18 h; assay type: cell-based
# [3] = tested on: S. epidermidis Evans 1916; experiment: Turbidity assay, MIC by optical density after 18 h; assay type: cell-based
# E. coli ATCC 25922 = experiment: Turbidity assay, full-length LPS strain; assay type: cell-based; details: E. coli ATCC 25922 with full-length LPS
compound,measurement,setting,value
C[C@H](N)C(=O)N[C@H](C(=O)N[C@@H](CS)C(=O)N[C@@H](Cc1ccc(O)cc1)C(=O)N[C@@H](CS)C(=O)N[C@@H](CCCNC(=N)N)C(=O)N[C@H](C(=O)NCC(=O)N[C@@H](CCCNC(=N)N)C(=O)O)[C@@H](C)O)[C@@H](C)O [HD-51-9] (H-ATCYCRTGR-OH; N-terminus and C-terminus assumed),phenotype of peptide treated bacteria (TEM),E. coli MC1000,detached inner membrane with additional big vacuole structures at one pole of the bacteria
same,Shannon diversity of the fecal microbiota,[1]; after 7 days of treatment (p=0.18) and after washout day 14 (p=0.07),remained similar
same,microbial community structure in the small intestine compared to the control,"[1]; after 7 days of washout, p=0.09",no statistical change
same,diversity of the small intestine microbiota,"[1]; day 7, versus vehicle gavaged control, p=0.004",increased bacterial diversity
same,relative abundance of Akkermansia in small intestine,"[1]; day 14, p=0.0085",increased
same,diversity of the small intestine microbiota,"[1]; day 14, p=0.45",likewise similar
same,GCA-900066575 of the Lacnospiraceae family and Hydrogenoanaero bacterium,[1]; fecal samples,decreased
same,relative abundance of Parasutterella and Candidatus Stoquefichus,[1]; fecal samples,increase in relative abundance
same,genus Akkermansia in the fecal samples,[1]; linear mixed model p=0.0754,borderline increased
same,overall microbiota composition in fecal samples compared to the control,"[1]; oral 7.19 μg/mouse for 7 days, day 7, p=0.08",borderline divergence
same,"Intestinimonas, ASF356 and Ruminococcaceae_UCG-013","[1]; small intestine, day 14",decreased in relative abundances
same,genus Ruminococcus_1,"[1]; small intestine, day 14",increased in relative abundance
same,MIC,C. albicans 529L,>>>
same,MIC against Akkermansia,Akkermansia muciniphila,could not be detected
same,growth of A. muciniphila,Akkermansia muciniphila; turbidity broth assay,"decrease the growth of A. muciniphila slightly, but did not kill the bacteria"
same,"antimicrobial activity, in words",S. aureus SA113,no bactericidal effects; also recorded: no growth inhibition
same,"antimicrobial activity, in words",C. albicans ATCC 10231,no antimicrobial activity
same,antimicrobial activity in radial diffusion assay,commensal bacteria,active against all tested bacteria
same,"antimicrobial activity, in words",E. coli BW 25113; E. coli BW 25113,strong bactericidal effects
same,"antimicrobial activity (MIC), activity class","E. coli BW 25113; E. coli BW 25113, optical density after 18 h",XX
same,antimicrobial activity after reduction of the peptide,"E. coli BW 25113; reduced versus oxidized peptide, E. coli BW 25113 and S. aureus SA113, 18 h (FIG. 6)",complete dissolving of its antimicrobial activity
same,"antimicrobial activity, in words",E. faecalis ATCC 19433; E. faecalis,strong bacterial activity
same,"antimicrobial activity (MIC), activity class","E. faecalis ATCC 19433; E. faecalis ATCC 19433, optical density after 18 h",XX
same,"antimicrobial activity (MIC), activity class",[2],X
same,"antimicrobial activity (MIC), activity class","C. tropicalis ATCC 4563; C. tropicalis ATCC 4563, optical density after 24 h",XX
same,"fungal growth inhibition, in words","C. tropicalis ATCC 4563; C. tropicalis, after 24 h",Inhibition of fungal growth could be observed
same,MIC,P. aeruginosa ATCC 27853,51.5 µg/mL
same,MIC,A. baumannii 4-MRGN,25.75 µg/mL
same,MIC,K. pneumoniae DSM 30104,>>>
same,MIC,K. pneumoniae 3-MRGN,>>>
same,MIC,S. aureus USA300,51.5 µg/mL
same,MIC,E. faecium 475747,25.75 µg/mL
same,"antimicrobial activity, in words",E. faecium ATCC 19434,neither HD51-9 nor its variants showed bactericidal effects
same,"antimicrobial activity, in words",[3],no bactericidal effects
same,"susceptibility, in words",E. coli ATCC 25922,highly susceptible
